Results are given in words; binding and its absence hold for the method and conditions named. Some results given as binding are weak or reduced against the parent protein; the word gives no strength.
B1: Type IV toxin CbtA (protein, UniProt P64524 1-124)
chain: MKTLPVLPGQAASSRPSPVEIWQILLSRLLDQHYGLTLNDTPFADERVIEQHIEAGISLCDAVNFLVEKYALVRTDQPGFSACTRSQLINSIDILRARRATGLMTRDNYRTVNNITLGKYPEAK
B2: toxin YpjF (protein, UniProt Q46953 1-109)
chain: MNTLPATISQAAKPCLSPVAVWQMLLTRLLEQHYGLTLNDTPFSDETVIKEHIDAGITLADAVNFLVEKYELVRIDHRGFSWQQQSPYISVVDILRARRSTGLLKTNVK
B3: toxin YkfI (protein, UniProt P77692 1-113)
chain: MKTLPAITQRAVKPCLSPVAVWQMLLTRLLEQHYGLTINDTPFCNEAVIKEHIDAGITLADAVNFLVEKYELVRIDRKGFSWQEQSPYLRAADILRARQATGLLRQSRNNVVR

Amino acid sequences for entries named in this document (tags omitted).
UniProt P0A9A6: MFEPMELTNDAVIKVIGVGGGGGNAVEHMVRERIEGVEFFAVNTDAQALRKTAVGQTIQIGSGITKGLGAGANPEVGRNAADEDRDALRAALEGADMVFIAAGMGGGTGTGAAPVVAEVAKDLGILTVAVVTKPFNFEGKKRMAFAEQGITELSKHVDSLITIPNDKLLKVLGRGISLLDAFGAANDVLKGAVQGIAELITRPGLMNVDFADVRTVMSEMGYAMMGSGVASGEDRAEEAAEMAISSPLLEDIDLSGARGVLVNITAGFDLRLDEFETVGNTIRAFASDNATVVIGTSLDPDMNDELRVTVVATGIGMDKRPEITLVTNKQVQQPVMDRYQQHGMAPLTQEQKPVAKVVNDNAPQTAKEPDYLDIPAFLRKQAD

Target: cell division protein FtsZ (E. coli K-12) (UniProt P0A9A6)
Assay: two-hybrid

Binder | binding
B1 | binds
B2 | binds
B3 | binds
